No constants are given. Whether binding was seen depends on the method and setting. Binding seen in cells or lysates may run through a third protein. These calls come from enrichment with a bait or labelling near it, and not all partners need be listed. One block for each binder: values may come before it.
Biological target: S. pombe Lsm3 (S. pombe) (UniProt Q9Y7M4)
Assay: co-purification (affinity and anion-exchange chromatography, chains confirmed by electrospray mass spectrometry); wild-type Lsm1–7 coexpressed in E. coli; IMAC, glutathione agarose (GST on Lsm3), TEV protease, HiTrapQ

The chains behind the UniProt entries cited, without tags or fusion partners.
UniProt Q9Y7M4: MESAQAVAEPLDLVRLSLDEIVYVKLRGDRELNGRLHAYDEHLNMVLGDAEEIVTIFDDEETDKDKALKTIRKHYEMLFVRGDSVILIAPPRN

binding: binds
B1: S. pombe Lsm4 (protein, UniProt O14352 1-121)
chain: MLPLTLLNATQGRPILVELKNGETFNGHLENCDNYMNLTLREVIRTMPDGDKFFRLPECYIRGNNIKYLRIQDEVLSQVAKQQAQQRENRGSRFRGRGQRGRGNYGHTAPNRRGRGRGGHM

binding: binds
B2: S. pombe Lsm1 (protein, UniProt P87173 1-140)
chain: MNQATQIIPFTTSGSLVDYVDRKVIVVLRDGKKLIGILRSFDQFANLMLQYTIERIYVDDMYGDIDRGVYIVRGENVVLLGELDLDKEYDAVKQLRRMPAEELYPLAKLHEEEKKKNIREKGKYLHSVGFSVDGGHDDLY

From paper PMC7491322
